Source: publication PMC11845855
No constants are given. Whether binding was seen depends on the method and setting. Binding seen in cells or lysates may run through a third protein. Some binding calls cover weakened binding; strength is not graded here. Tags and fused reporters may be left off the sequences shown. One block for each molecule: values may come before it.

The chains behind the UniProt entries cited, without tags or fusion partners.
UniProt Q8R4B8: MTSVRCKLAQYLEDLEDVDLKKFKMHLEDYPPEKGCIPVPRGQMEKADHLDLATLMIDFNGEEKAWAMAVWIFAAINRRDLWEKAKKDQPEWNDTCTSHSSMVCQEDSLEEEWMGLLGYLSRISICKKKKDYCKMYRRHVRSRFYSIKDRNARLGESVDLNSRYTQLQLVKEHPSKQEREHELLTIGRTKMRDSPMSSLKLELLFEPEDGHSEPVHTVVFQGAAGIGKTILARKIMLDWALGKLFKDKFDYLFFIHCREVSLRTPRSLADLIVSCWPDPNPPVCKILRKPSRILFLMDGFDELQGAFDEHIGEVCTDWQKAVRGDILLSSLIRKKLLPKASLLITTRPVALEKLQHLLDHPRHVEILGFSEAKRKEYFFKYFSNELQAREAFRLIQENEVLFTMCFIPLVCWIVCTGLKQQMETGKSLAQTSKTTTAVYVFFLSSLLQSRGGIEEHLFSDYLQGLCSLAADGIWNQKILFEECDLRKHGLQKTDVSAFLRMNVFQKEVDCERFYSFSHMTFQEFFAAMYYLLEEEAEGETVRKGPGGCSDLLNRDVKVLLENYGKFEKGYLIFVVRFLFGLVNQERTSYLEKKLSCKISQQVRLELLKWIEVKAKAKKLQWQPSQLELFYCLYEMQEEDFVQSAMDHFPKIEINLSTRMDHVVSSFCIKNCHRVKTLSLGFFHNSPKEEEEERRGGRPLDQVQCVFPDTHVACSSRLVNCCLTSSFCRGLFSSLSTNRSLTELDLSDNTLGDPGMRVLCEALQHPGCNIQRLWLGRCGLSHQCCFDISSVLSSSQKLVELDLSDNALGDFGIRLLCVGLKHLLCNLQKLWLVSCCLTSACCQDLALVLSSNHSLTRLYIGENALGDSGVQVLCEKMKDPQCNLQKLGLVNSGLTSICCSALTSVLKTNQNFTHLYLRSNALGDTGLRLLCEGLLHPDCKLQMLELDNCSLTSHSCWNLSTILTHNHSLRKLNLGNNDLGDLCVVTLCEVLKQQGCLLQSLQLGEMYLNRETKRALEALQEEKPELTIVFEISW

Key:
[1] = molecular target: T1, Flag-USP25 (ubiquitin-specific protease 25), expressed in NIH/3T3 cells (UniProt P57080); test: co-IP; NIH/3T3 cells co-transfected with wild-type or domain deletion constructs of NLRP3 (HA-His) or USP25 (Flag) and the partner; IP with anti-Flag antibody, western blot
T1 sequence: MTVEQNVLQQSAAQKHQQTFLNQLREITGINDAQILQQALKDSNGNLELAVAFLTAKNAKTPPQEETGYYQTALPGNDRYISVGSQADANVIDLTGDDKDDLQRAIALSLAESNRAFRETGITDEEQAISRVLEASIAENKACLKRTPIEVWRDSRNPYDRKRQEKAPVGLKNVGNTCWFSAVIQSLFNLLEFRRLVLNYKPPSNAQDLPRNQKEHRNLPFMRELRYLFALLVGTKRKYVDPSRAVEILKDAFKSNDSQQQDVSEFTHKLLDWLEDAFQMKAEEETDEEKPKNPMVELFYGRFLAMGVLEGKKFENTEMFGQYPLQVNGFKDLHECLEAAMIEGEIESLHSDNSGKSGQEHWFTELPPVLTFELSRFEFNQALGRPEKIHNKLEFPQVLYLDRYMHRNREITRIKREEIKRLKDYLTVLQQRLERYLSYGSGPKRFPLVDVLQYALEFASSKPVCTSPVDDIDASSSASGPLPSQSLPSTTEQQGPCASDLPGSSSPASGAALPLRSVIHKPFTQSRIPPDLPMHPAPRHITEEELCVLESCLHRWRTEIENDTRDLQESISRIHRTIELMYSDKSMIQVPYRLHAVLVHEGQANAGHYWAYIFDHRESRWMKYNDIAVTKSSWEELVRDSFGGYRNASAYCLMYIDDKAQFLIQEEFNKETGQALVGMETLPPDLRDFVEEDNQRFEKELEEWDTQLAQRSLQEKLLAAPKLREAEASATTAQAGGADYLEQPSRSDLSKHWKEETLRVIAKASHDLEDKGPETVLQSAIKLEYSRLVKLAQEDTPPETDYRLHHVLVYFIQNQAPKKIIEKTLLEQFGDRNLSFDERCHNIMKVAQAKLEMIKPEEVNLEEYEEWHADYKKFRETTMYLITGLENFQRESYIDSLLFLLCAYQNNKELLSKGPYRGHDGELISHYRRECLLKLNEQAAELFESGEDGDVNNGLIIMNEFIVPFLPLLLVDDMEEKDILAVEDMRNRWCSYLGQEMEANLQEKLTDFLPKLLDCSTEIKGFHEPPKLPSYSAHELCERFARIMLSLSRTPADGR

[2] = molecular target: T2, Flag-USP25 (ubiquitin-specific protease 25), expressed in neonatal rat primary cardiomyocytes (UniProt P57080); test: co-IP; NRPCs co-transfected with USP25 and NLRP3 plasmids, with or without H/R; IP with anti-Flag antibody, western blot
T2 sequence: T1 sequence

[3] = molecular target: His-NLRP3, expressed in NIH/3T3 cells (UniProt Q8R4B8); test: co-IP; NIH/3T3 cells co-transfected with Flag-USP25 and His-NLRP3; IP with anti-His antibody, western blot

Molecule: His-NLRP3, expressed in NIH/3T3 cells (from UniProt Q8R4B8 1-1033)
binding [1]: binds

Molecule: NLRP3 expressed from plasmid in neonatal rat primary cardiomyocytes (from UniProt Q8R4B8 1-1033)
binding [2]: binds

The remaining lines, values ahead:

binding [1]: binds
Molecule: HA-His-wt-NLRP3, expressed in NIH/3T3 cells (from UniProt Q8R4B8 1-1033)

binding [3]: binds
B1: Flag-USP25 (ubiquitin-specific protease 25), expressed in NIH/3T3 cells (enzyme, UniProt P57080 1-1055)
chain: T1 sequence
